These are yes or no findings as the source states them, for the method shown. Binding seen in cells or lysates may run through a third protein. Binding calls can cover weak binding; strength is not graded here.

By UniProt entry, the sequences of proteins in these tests, tags left out. Where a name states a change or a piece, a line headed by the entry shows the natural chain unless it says otherwise.
UniProt P27090: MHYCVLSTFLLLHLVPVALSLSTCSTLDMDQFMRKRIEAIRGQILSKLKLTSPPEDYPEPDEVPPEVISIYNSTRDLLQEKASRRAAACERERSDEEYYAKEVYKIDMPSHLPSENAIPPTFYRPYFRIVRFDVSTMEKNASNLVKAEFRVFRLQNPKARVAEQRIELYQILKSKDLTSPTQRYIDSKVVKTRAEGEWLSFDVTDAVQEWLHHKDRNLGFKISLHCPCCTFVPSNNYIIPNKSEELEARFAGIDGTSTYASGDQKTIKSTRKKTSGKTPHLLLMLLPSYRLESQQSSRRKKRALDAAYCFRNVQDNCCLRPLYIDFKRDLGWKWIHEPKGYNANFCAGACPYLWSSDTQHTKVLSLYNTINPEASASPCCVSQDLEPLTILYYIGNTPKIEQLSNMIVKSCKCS

For assay [1], the target named is T1, fibromodulin (Fmod) (mouse (endogenous in peritoneal macrophages)) (UniProt P50608).
T1 sequence: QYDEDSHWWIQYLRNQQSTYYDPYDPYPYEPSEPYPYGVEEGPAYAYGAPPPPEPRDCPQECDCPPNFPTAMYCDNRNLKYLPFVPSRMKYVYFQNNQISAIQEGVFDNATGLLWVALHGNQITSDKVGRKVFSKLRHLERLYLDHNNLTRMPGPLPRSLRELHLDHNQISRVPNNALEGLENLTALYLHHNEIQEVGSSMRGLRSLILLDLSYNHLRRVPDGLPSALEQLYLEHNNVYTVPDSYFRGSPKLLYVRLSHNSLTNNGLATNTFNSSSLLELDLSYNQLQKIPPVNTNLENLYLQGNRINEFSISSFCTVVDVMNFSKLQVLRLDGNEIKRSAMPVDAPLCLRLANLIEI
In words: co-IP; anti-Fmod antibody (100 µg) coupled to Dynabeads (5 mg); lysates of thioglycollate-elicited peritoneal macrophages from Notch1+/- mice; washed three times with PBS; Western blot for TGF-β2, Fmod and NICD. On the technique in general: Immunoblotting shows a protein as a band on a membrane.

The target in assay [2] is T1, fibromodulin (Fmod) (mouse (endogenous in peritoneal macrophages)). In words: co-IP; anti-Fmod antibody (100 µg) coupled to Dynabeads (5 mg); lysates of thioglycollate-elicited peritoneal macrophages from WT mice; washed three times with PBS; Western blot for TGF-β2, Fmod and NICD.

With “transforming growth factor beta 2 (Tgf-β2) (from UniProt P27090)”, the figures for the binding entry in assay [1] and in assay [2] were “binds” and “binds weakly”, respectively.
